No constants are given. Whether binding was seen depends on the method and setting. Binding seen in cells or lysates may run through a third protein. Binding calls can cover weak binding; strength is not graded here.
target: T1, EphrinB1 (endogenous, SCC1 cells) (human (endogenous in SCC1)) (UniProt P98172); experiment: co-IP; endogenous EphrinB1 immunoprecipitated overnight with anti-ephrinB1 (R&D Systems AF473) from SCC1 whole cell lysate and mitotic (serum starvation, release, mitotic shake-off), soluble and insoluble fractions; lysis buffer 50mM Tris HCl pH 7.5, 150mM NaCl, 5mM EDTA, 1% Triton X-100; western blots for α/β tubulin, γ tubulin and α tubulin
T1 sequence: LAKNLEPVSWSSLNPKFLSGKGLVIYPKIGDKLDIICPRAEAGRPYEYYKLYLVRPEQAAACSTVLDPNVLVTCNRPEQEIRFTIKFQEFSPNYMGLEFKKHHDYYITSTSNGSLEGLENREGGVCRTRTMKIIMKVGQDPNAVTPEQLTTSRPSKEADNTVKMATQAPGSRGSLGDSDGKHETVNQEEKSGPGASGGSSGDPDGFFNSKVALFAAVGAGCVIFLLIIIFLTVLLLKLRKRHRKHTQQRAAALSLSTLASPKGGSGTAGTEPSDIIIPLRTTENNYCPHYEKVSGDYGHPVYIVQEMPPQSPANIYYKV

Chains of the proteins cited; added tags and fusions are not shown. Lines headed by an entry give the natural chain unless they say otherwise; changes in a name come on top.
UniProt P23258: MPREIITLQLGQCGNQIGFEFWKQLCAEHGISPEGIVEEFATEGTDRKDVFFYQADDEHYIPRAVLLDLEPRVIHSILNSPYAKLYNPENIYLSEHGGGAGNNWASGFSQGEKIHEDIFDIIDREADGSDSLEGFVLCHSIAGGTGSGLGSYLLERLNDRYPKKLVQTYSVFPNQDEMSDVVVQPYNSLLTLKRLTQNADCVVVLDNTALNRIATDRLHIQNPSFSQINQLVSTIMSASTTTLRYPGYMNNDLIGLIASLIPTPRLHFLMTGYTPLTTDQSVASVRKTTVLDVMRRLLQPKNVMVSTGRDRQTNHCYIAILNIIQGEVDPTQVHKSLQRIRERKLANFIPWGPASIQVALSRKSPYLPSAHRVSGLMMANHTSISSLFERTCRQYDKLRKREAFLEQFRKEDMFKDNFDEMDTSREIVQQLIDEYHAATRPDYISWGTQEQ

Row | binding | Substance
1 | binds | α tubulin (endogenous, SCC1 cells) (human (endogenous in SCC1))
2 | binds | γ tubulin (endogenous, SCC1 cells) (from UniProt P23258)
3 | binds | α/β tubulin (endogenous, SCC1 cells) (human (endogenous in SCC1)) (complex)

Source: article PMC4359267
